Measurements: paper PMC7819943, “Rice protein-binding microarrays: a tool to detect cis-acting elements near promoter regions in rice”
The other results are listed elsewhere or left out.

By UniProt entry, the sequences of proteins in these tests, tags left out.
UniProt Q0JBA9, entry or part of it: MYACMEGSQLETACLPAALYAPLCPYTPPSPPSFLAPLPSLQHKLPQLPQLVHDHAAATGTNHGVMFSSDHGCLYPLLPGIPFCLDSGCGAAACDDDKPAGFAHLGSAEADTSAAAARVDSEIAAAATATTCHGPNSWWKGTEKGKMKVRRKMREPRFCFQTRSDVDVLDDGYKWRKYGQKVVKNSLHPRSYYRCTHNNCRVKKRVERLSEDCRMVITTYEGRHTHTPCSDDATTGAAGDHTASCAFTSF

target: OsWRKY34 (Oryza sativa, UniProt Q0JBA9 1-250); test: protein-binding microarray (RPBM); PBS, 2% BSA, 51.3 ng/ul salmon testes DNA, 50 uM zinc acetate, 200 nM TF, 25 C, 1 h; high values mean tight binding; settings: protein: recombinant; tags: N-terminal polyhistidine and DsRed monomer fusion (pET32a); label: CyDye5-dUTP incorporated in the synthesized complementary strand; 3' TTTTT single-stranded linker to array surface; dsDNA, one strand shown
How it was run: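 Binding signal is defined as the fluorescence intensity of each feature in arbitrary units, read on an Axon 4000B scanner. Transcription factors with N-terminal polyhistidine and DsRed fusions came from E. coli BL21-CodonPlus and were purified on Ni–NTA. They were incubated at 200 nM for 1 h at 25 °C on a custom Agilent array that had been made double-stranded with Cy5-dUTP, with 50 µM zinc acetate present, and the array was washed.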

Row | Sequence | binding signal
1 | TTCTTTCTTTTTTGGCGGGGACTACTCTTTACTTGAACCTCGGAGTCACCTAGTGCAG | 12400 fluorescence intensity (a.u.)
2 | ACATTCCCATTTTGCGTTTTCAGATCTCATTTTTTTTCCCCGGAGTCACCTAGTGCAG | 12000 fluorescence intensity (a.u.)
3 | CCTGTATTCAATTGCAACCATTCATCTATCATACTCTCTCCGGAGTCACCTAGTGCAG | 8450 fluorescence intensity (a.u.)
4 | CACCGCCCTTGGCTCGCCCCGCCGCTCGTCCACCACCACGCGGAGTCACCTAGTGCAG | 10700 fluorescence intensity (a.u.)
5 | GATGAGGAGTGTGGGATGAGGAGAAATGGCTGGGGTTCATCGGAGTCACCTAGTGCAG | 9170 fluorescence intensity (a.u.)
6 | CTTGCAATGTATGCTCACATATTTCTTATTAGTTGTTTCCCGGAGTCACCTAGTGCAG | 8870 fluorescence intensity (a.u.)
7 | AGTTAAATGTAGCCAAATTCGCCGGCTTCTCCATTGTCTCCGGAGTCACCTAGTGCAG | 8360 fluorescence intensity (a.u.)
8 | CGATCTGCTTTTCTTTTTCTTTCCCTGCGCTCTCCTTTTTCGGAGTCACCTAGTGCAG | 9890 fluorescence intensity (a.u.)
9 | AAATGACAAGCCAATTTGTTCTCCTTTGTTTGCTCTGACCCGGAGTCACCTAGTGCAG | 8370 fluorescence intensity (a.u.)
10 | CCCAGGAAACCCTATCTTTTTTCCTCCCTTTAAACTTAACCGGAGTCACCTAGTGCAG | 9030 fluorescence intensity (a.u.)
11 | CCCCGCTCCCGCGCGTCGCCGAGCGTTTCACGTTCACAACCGGAGTCACCTAGTGCAG | 10300 fluorescence intensity (a.u.)
12 | CCCGGCTAACCTCGCCCTCACTCACTCCACTACTACTTTTCGGAGTCACCTAGTGCAG | 10100 fluorescence intensity (a.u.)
13 | ACATGGCCCCACCCTTTTTATTATTTTGTGTGTAATTGACCGGAGTCACCTAGTGCAG | 9990 fluorescence intensity (a.u.)
14 | CATATATTTACCTGCGCAAACAAACACTTGACACCAAAATCGGAGTCACCTAGTGCAG | 8090 fluorescence intensity (a.u.)
15 | TTGACACAGCGTTTACACCCGTGGCCATTCATGTTCTGCTCGGAGTCACCTAGTGCAG | 8130 fluorescence intensity (a.u.)
16 | CCGTTCCCGCGCACATTTTTTCGGCATCCCACCCGCCGATCGGAGTCACCTAGTGCAG | 9770 fluorescence intensity (a.u.)
17 | GACCACAACACGCGACGCCACGCCTCCTCCCGATCCGCTCCGGAGTCACCTAGTGCAG | 8320 fluorescence intensity (a.u.)
18 | TCTTTGTGTTTTTTTTTCCTCTCCTTTTCTTGAGGAATTTCGGAGTCACCTAGTGCAG | 9700 fluorescence intensity (a.u.)
19 | CGATCAATCTCTCTTTATTTATTTGCAGATCGATCAACCTCGGAGTCACCTAGTGCAG | 8310 fluorescence intensity (a.u.)
20 | CAGTTCTGGTGCTCCTCCATCTCCGCCGCCGACGACCTCGCGGAGTCACCTAGTGCAG | 8140 fluorescence intensity (a.u.)
21 | GAGGTGGTGGGTTTCCCACGTGTGTTCCTTTAGTTCTCTTCGGAGTCACCTAGTGCAG | 12700 fluorescence intensity (a.u.)
22 | CCACTTGTATTGCTACTTGCTGTTAGACTATGCCATCAATCGGAGTCACCTAGTGCAG | 11700 fluorescence intensity (a.u.)
23 | CACCACCACCACTACCACCTCTGCTTTTTCTACCCTCGATCGGAGTCACCTAGTGCAG | 10800 fluorescence intensity (a.u.)
24 | GCTTCCCGTCGACGTGCTTCGCCTCCAGCGACTGGAGCTCCGGAGTCACCTAGTGCAG | 8360 fluorescence intensity (a.u.)
25 | CACATTAGACCTTTCGTCTTGTTTGTTCGTAATAAGCTTTCGGAGTCACCTAGTGCAG | 10100 fluorescence intensity (a.u.)
26 | GGTAGCGTCGTTGACGTTCCACTTTGACCTGTTGTATCTCCGGAGTCACCTAGTGCAG | 8750 fluorescence intensity (a.u.)
27 | ATTCCAGGAAATATCAGGGTTTTCTGTCGTTGCCGCCCATCGGAGTCACCTAGTGCAG | 8200 fluorescence intensity (a.u.)

Row | Sequence | binding signal
28 | CTCCTCTCTTGTCGCCCACACCGGTTGCCGAGCTCTCCTTCGGAGTCACCTAGTGCAG | 10300 fluorescence intensity (a.u.)
29 | TGTGTTGCTGTTCTATTTCCAGGTGTGATTATTGTTCTGTCGGAGTCACCTAGTGCAG | 10500 fluorescence intensity (a.u.)
30 | AGGTTCTTGTTGCTGTTGCTGTTCATCATTATCATAGCCACGGAGTCACCTAGTGCAG | 10500 fluorescence intensity (a.u.)
31 | GCCTTTTTACGACTTTTTTTTCTTTGTGTCAAATCGGACTCGGAGTCACCTAGTGCAG | 9490 fluorescence intensity (a.u.)
32 | CGTAGAAGGCACTACTCATTATCACCGCCTTTTACGTACCCGGAGTCACCTAGTGCAG | 8480 fluorescence intensity (a.u.)
33 | TTATAGTAGTTCTGTGTGTAGTTTTTTTTTCTTCTGACTCCGGAGTCACCTAGTGCAG | 11000 fluorescence intensity (a.u.)
34 | TTTTGCAATGTGATTTGCTGGTTTGGATAGTGGAGAAGTTCGGAGTCACCTAGTGCAG | 8930 fluorescence intensity (a.u.)
35 | CCCGCCGCCGTCCCCATCCCCAAGCTCGTTCAGCACCGTCCGGAGTCACCTAGTGCAG | 8140 fluorescence intensity (a.u.)
36 | TCCAATCAAACGACCATTCCTGTGTTTTGCAATCCTCTGTCGGAGTCACCTAGTGCAG | 11300 fluorescence intensity (a.u.)
37 | CTCTCTTCTATTCCTTGCTCTCCAGATCTCATCTCCCAGACGGAGTCACCTAGTGCAG | 8100 fluorescence intensity (a.u.)
38 | TAATCCCAAATCCTCTTATCCCTTTCCGGCGATTTCAATTCGGAGTCACCTAGTGCAG | 9320 fluorescence intensity (a.u.)
39 | TTCGTGTTCATCGCGTCGGGTCAAATCCCTCCTCTTCTTCCGGAGTCACCTAGTGCAG | 9850 fluorescence intensity (a.u.)
40 | AGTCTTCTTACTTTCATCTAAAACAGAGGTTCTTATGTTTCGGAGTCACCTAGTGCAG | 8030 fluorescence intensity (a.u.)
41 | CTCTCTTTTTCGCTTATTTTTTGCCTGTGTCAAATAACCACGGAGTCACCTAGTGCAG | 9120 fluorescence intensity (a.u.)
42 | CATCCCAAACACTGTAGGTTTTTTTTTTATTTGCTCTCTACGGAGTCACCTAGTGCAG | 8400 fluorescence intensity (a.u.)
43 | TTTGATACTGACCTTTCAATTTGTTTTATATTTAACTTAACGGAGTCACCTAGTGCAG | 8920 fluorescence intensity (a.u.)
44 | GTCAACACCGCCGCCACTGCACCGATTCTTCTTGAGAAGACGGAGTCACCTAGTGCAG | 9820 fluorescence intensity (a.u.)
45 | ACACACTGGCCACATCCAAACCGGTGACCAAGAAGCCAATCGGAGTCACCTAGTGCAG | 8170 fluorescence intensity (a.u.)
46 | TGCGTTGTGGGTGCTTGTGTCTGTTCTGTATTTATAAAAACGGAGTCACCTAGTGCAG | 8750 fluorescence intensity (a.u.)
47 | CCGTTACACCACCCGCCTCACGCCGTCACGTCAACTTCCGCGGAGTCACCTAGTGCAG | 10900 fluorescence intensity (a.u.)
48 | CAATGGAGTGAATCCTATCGTATCCTTTGAAATTTCTATACGGAGTCACCTAGTGCAG | 8910 fluorescence intensity (a.u.)
49 | CTAGCTTCGTCCTTCGTTGCTAATCCCAGCCAGTTAATCACGGAGTCACCTAGTGCAG | 8060 fluorescence intensity (a.u.)
50 | ATACGTCATTTGTATTTGAGTCGGTTTTTAAGTTCCTCCGCGGAGTCACCTAGTGCAG | 12200 fluorescence intensity (a.u.)
51 | CGTAGGCTGTCTCTTCTCAAGTTACACTCTACTGCCACGACGGAGTCACCTAGTGCAG | 8290 fluorescence intensity (a.u.)
52 | GGTGGTGGTGTGAGAGCAGTAGACAGGTTTTTCTTGGGGACGGAGTCACCTAGTGCAG | 8280 fluorescence intensity (a.u.)
53 | CCCCTTGAGCTTCCTAGAAGGTGCCAGGCGGTCGTATTCACGGAGTCACCTAGTGCAG | 8430 fluorescence intensity (a.u.)
54 | AATCCCCAATCTCTTGGCCAGCAGCCAGTTACATTTTTCACGGAGTCACCTAGTGCAG | 8840 fluorescence intensity (a.u.)

Looked up above:
Entry for GGTGGTGGTGTGAGAGCAGTAGACAGGTTTTTCTTGGGGACGGAGTCACCTAGTGCAG under binding signal: 8280 fluorescence intensity (a.u.)
Entry for CAATGGAGTGAATCCTATCGTATCCTTTGAAATTTCTATACGGAGTCACCTAGTGCAG under binding signal: 8910 fluorescence intensity (a.u.)
Entry for CTCTCTTTTTCGCTTATTTTTTGCCTGTGTCAAATAACCACGGAGTCACCTAGTGCAG under binding signal: 9120 fluorescence intensity (a.u.)
Entry for TTTTGCAATGTGATTTGCTGGTTTGGATAGTGGAGAAGTTCGGAGTCACCTAGTGCAG under binding signal: 8930 fluorescence intensity (a.u.)
